Experimental data as given in publication PMC4256266.
Results are given in words; binding and its absence hold for the method and conditions named. In cells and extracts the contact can be indirect. Binding calls can cover weak binding; strength is not graded here.

Chains of the proteins cited; added tags and fusions are not shown. Lines headed by an entry give the natural chain unless they say otherwise; changes in a name come on top.
UniProt Q03267: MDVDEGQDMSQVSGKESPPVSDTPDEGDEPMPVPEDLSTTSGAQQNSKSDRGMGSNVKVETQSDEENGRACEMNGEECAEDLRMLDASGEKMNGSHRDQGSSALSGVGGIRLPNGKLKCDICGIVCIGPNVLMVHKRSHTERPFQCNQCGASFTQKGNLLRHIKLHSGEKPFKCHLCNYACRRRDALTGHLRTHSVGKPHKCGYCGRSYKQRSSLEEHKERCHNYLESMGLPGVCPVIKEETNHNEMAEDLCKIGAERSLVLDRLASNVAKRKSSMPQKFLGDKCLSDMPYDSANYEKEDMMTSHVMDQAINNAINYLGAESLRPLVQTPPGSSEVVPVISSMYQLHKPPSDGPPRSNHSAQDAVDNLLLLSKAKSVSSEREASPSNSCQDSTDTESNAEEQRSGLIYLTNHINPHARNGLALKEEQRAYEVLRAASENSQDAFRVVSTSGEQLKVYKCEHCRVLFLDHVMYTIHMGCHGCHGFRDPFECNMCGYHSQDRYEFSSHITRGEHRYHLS

Molecular target: Flag-HA-tagged murine Ikaros1ΔPP1 (FH-Ik1ΔPP1), in 293T (mouse) (UniProt Q03267)
Experiment: co-IP; total cell lysates of 293T cells transiently transfected with FH-Ik1, FH-Ik1ΔPP1 or empty vector; IP with FLAG antibodies, blots for IKAROS, Mi2, CDK9, CYCLIN T1, MTA2

CDK9 (endogenous, 293T) (from UniProt P50750 1-372) (enzyme)
binding: binds
